In PMC10351895:
These are yes or no findings as the source states them, for the method shown. Binding seen in cells or lysates may run through a third protein. These calls come from enrichment with a bait or labelling near it, and not all partners need be listed. For part of these data: Sequences can lack the tags named with a protein.

Chains of the proteins cited; added tags and fusions are not shown.
UniProt Q3U155: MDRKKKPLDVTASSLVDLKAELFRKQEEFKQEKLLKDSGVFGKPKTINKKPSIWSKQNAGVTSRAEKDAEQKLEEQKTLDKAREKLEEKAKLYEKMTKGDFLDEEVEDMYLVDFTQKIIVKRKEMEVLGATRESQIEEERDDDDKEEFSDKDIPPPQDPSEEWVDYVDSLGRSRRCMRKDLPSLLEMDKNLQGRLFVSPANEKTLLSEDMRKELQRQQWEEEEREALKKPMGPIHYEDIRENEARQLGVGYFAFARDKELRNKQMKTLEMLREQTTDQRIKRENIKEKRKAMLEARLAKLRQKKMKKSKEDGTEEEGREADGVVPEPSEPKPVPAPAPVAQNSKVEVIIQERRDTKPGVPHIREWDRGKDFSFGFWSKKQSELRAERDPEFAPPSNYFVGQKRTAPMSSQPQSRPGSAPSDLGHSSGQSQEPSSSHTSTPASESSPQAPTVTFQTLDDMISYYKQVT
UniProt O35286: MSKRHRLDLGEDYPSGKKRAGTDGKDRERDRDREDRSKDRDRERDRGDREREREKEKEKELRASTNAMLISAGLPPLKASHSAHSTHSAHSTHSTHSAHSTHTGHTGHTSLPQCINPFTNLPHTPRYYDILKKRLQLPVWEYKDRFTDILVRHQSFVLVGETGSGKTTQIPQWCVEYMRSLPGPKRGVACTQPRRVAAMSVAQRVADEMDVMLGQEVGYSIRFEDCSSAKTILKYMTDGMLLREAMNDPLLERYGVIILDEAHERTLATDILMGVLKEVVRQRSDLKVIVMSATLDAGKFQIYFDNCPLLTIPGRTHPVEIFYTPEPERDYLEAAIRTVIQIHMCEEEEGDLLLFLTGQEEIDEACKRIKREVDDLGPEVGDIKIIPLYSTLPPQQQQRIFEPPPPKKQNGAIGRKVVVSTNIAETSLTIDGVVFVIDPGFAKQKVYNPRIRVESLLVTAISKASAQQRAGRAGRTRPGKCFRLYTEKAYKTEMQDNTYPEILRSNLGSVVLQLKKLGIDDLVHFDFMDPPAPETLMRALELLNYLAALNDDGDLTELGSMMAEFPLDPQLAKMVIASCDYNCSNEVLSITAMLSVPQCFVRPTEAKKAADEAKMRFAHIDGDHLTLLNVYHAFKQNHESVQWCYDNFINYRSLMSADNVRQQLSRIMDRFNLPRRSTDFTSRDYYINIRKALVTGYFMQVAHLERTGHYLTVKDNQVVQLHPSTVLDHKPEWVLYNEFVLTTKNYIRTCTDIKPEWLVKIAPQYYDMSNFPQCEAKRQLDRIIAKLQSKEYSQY
UniProt Q8BTI8: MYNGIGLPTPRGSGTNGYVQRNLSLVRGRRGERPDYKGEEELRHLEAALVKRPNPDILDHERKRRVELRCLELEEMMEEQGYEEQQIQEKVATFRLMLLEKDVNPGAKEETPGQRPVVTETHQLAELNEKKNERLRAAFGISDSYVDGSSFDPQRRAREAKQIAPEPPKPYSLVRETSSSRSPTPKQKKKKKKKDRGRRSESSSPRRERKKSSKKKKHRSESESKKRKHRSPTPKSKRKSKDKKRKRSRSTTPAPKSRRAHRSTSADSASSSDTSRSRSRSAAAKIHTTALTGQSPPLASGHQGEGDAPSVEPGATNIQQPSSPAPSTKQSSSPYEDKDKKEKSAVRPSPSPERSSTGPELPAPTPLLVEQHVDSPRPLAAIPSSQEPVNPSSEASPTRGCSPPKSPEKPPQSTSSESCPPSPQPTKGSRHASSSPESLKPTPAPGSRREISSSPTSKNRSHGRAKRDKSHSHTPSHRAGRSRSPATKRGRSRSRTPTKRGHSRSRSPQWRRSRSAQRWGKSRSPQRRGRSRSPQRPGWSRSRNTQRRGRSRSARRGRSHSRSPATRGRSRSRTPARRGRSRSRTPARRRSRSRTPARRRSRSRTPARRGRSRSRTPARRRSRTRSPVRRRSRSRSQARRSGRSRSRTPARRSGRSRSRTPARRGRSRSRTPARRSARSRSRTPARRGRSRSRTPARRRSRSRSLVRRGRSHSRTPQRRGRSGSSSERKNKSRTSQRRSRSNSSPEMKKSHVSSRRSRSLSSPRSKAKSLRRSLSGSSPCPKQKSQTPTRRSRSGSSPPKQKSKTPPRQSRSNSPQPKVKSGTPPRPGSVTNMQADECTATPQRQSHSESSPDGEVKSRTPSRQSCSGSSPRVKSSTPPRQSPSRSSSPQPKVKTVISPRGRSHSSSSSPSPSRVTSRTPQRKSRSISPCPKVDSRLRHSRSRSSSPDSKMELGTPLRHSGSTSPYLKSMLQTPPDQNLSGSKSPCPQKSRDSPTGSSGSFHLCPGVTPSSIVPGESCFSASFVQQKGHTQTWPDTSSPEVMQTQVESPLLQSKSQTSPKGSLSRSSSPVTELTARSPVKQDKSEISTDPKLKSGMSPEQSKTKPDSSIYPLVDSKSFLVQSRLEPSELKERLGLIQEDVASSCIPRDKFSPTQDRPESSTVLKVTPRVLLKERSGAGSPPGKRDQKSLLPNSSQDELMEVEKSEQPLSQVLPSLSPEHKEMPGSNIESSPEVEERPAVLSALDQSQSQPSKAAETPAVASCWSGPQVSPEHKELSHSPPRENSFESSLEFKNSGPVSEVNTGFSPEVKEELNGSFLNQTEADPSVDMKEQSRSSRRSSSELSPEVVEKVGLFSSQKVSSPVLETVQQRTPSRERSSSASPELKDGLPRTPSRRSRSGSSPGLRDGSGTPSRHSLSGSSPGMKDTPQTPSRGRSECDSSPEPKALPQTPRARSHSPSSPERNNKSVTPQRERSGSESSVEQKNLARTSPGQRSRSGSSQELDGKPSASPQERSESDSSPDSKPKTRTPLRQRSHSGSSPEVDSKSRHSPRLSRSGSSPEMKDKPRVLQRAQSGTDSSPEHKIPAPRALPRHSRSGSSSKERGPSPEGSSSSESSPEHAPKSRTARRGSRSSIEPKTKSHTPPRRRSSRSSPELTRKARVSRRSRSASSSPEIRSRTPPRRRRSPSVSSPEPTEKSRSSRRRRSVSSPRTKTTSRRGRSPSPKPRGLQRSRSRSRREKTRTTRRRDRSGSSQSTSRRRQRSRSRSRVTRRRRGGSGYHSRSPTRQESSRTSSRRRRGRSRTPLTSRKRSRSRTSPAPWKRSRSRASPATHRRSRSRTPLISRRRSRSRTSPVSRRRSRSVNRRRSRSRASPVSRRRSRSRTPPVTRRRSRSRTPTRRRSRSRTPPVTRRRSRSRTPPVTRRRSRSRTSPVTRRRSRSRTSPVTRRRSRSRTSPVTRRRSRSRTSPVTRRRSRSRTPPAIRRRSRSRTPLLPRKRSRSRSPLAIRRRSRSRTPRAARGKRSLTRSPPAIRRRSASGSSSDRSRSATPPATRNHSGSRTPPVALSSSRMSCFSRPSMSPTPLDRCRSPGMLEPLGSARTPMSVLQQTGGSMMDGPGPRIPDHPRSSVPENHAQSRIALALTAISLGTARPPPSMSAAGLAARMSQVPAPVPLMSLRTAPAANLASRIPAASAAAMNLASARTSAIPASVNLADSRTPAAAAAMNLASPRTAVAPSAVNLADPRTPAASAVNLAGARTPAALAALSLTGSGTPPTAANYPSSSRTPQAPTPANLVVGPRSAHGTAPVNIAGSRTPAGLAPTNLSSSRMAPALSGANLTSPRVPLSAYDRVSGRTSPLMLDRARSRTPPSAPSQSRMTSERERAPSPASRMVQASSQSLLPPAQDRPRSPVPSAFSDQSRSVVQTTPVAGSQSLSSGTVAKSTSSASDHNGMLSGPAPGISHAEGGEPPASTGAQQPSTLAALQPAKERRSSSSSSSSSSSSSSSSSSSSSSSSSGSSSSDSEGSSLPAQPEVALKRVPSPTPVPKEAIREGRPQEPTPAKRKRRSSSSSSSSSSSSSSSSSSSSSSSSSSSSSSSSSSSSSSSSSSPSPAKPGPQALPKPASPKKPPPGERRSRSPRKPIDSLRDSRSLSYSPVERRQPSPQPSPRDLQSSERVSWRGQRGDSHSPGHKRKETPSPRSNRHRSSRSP

T1: 3A-NRDE2 (nuclear RNAi-defective 2 with a composite 3xFLAG-AviTag, endogenous gene tagged) (mouse (endogenous in mESCs)) (UniProt Q80XC6)
T1 sequence (chain, biotin on the AviTag (cells express bacterial BirA ligase)): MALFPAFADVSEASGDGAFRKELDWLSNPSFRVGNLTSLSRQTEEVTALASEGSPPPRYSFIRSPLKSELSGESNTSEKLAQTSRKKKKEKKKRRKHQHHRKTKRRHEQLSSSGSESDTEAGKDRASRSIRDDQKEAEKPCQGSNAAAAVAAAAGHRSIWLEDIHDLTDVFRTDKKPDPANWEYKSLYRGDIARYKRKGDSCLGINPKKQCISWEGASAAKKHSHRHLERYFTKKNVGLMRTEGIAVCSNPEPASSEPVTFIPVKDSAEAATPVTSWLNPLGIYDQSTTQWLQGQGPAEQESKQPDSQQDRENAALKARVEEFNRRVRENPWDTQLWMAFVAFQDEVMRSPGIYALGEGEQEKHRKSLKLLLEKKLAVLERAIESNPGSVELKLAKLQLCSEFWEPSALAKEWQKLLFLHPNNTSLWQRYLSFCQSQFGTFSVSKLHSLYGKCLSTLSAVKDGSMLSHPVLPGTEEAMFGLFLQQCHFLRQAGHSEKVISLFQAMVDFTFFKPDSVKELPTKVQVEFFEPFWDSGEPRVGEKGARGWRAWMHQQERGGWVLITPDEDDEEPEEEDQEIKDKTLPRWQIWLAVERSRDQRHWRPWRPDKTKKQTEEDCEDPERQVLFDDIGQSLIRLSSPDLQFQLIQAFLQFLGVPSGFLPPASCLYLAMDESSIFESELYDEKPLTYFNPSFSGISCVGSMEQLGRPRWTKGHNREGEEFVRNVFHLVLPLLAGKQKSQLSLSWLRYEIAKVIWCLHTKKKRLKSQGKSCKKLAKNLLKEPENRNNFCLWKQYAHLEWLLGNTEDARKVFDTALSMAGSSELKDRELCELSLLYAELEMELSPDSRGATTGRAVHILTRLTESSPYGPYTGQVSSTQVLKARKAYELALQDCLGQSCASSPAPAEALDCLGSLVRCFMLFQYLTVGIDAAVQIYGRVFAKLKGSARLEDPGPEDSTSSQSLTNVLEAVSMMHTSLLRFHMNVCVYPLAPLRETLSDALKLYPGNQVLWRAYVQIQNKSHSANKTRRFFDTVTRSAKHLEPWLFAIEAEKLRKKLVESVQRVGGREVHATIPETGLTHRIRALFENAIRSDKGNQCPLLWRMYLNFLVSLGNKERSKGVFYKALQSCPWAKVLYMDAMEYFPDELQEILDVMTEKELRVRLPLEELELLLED


Assays:
[1] = target: 3A-CCDC174 (endogenous gene tagged) (mouse (endogenous in mESCs)) (UniProt Q3U155); assay: cross-linking + affinity purification with mass spectrometry; xTAP-MS: cells fixed 10 min with 0.1% formaldehyde (final), lysis in 1% SDS with Benzonase, tandem anti-FLAG then streptavidin purification of the endogenous 3A-tagged bait with stringent washes (0.5 M NaCl, 1% Triton X-100, 0.1% SDS); compared with untagged control, three replicates
[2] = target: T1, 3A-NRDE2 (nuclear RNAi-defective 2 with a composite 3xFLAG-AviTag, endogenous gene tagged) (mouse (endogenous in mESCs)); assay: as above
[3] = target: T1, 3A-NRDE2 (nuclear RNAi-defective 2 with a composite 3xFLAG-AviTag, endogenous gene tagged) (mouse (endogenous in mESCs)); assay: affinity purification with mass spectrometry; nTAP-MS: tandem anti-FLAG then streptavidin purification of the endogenous 3A-tagged bait from mESC lysate under mild native low-salt conditions (B100: 10 mM Tris-HCl pH 7.5, 2 mM MgCl2, 100 mM NaCl, 0.5% Triton X-100, Benzonase); compared with untagged control, three replicates

binding [1] | binding [2] | binding [3] | Molecule
binds | binds |  | DHX15 (from UniProt O35286 1-795)
 | binds |  | SRRM2 (from UniProt Q8BTI8 1-2703)
binds | binds |  | TFIP11 (protein, UniProt Q9ERA6 1-838) MSLSHLYRDGEGHLDDDDDDERENFEITDWDLQNEFNPNRQRHWQTKEEATYGVWAERDSDEERPSFGGKRARDYSAPVNFISAGLKKGAAEEADSEDSDAEEKPVKQEDFPKDLGPKKLKTGGNFKPSQKGFSGGTKSFMDFGSWERHTKGIGQKLLQKMGYVPGRGLGKNAQGIINPIEAKQRKGKGAVGAYGSERTTQSLQDFPVADSEEEAEEEFQKELSQWRKDPSGSKKKPKYSYKTVEELKAKGRVSKKLTAPQKELSQVKVIDMTGREQKVYYSYSQISHKHSVPDEGVPLLAQLPPTAGKEARMPGFALPELEHNLQLLIERTEQEIIQSDRQLQYERDMVVSLSHELEKTAEVLAHEERVISNLSKVLALVEECERRMQPHGADPLTLDECARIFETLQDKYYEEYRLADRADLAVAIVYPLVKDYFKDWHPLEDGSYGTQIISKWKSLLENDQLLSHSSQDLSSDAFHRLMWEVWMPFVRNVVAQWQPRNCEPMVDFLDSWAHIIPVWILDNILDQLIFPKLQKEVDNWNPLTDTVPIHSWIHPWLPLMQARLEPLYSPVRSKLSSALQKWHPSDASAKLILQPWKEVLTPGSWEAFMLRNIVPKLGMCLGELVINPHQQHMDAFYWVMDWEGMISVSSLVGLLEKHFFPKWLQVLCSWLSNSPNYEEITKWYLGWKSMFSDQVLAHPSVKDKFNEALDIMNRAVSSNVGAYMQPGARENIAYLTHTERRKDFQYEAMQERREAENMAQRGIGVAASSVPMNFKDLIETKAEEHNIVFMPVIGKRHEGKQLYTFGRIVIYIDRGVVFVQGEKTWVPTSLQSLIDMAK
 | binds | binds | MTREX, nuclear exosome-associated RNA helicase (protein, UniProt Q9CZU3 1-1040) MADAFGDELFSVFEDDSTSAAGAKKDKEKEKWKGPPGSADKAGKRLDTKLQSESASGGKNKRDLDVEGTDEPIFGKKPRIEDSINEDLSLADLMPRVKVQSVETVEGCTHEVALPADEDYIPLKPRVGKAAKEYPFILDAFQREAIQCVDNNQSVLVSAHTSAGKTVCAEYAIALALREKQRVIFTSPIKALSNQKYREMYEEFQDVGLMTGDVTINPTASCLVMTTEILRSMLYRGSEVMREVAWVIFDEIHYMRDSERGVVWEETIILLPDNVHYVFLSATIPNARQFAEWICHLHKQPCHVIYTDYRPTPLQHYIFPAGGDGLHLVVDENGDFREDNFNTAMQVLRDAGDLAKGDQKGRKGGTKGPSNVFKIVKMIMERNFQPVIIFSFSKKDCEAYALQMTKLDFNTDEEKKMVEEVFNNAIDCLSDEDKKLPQVEHVLPLLKRGIGIHHGGLLPILKETIEILFSEGLIKALFATETFAMGINMPARTVLFTNARKYDGKDFRWISSGEYIQMSGRAGRRGMDDRGIVILMVDEKMSPTIGKQLLKGSADPLNSAFHLTYNMVLNLLRVEEINPEYMLEKSFYQFQHYRAIPGVVEKVKNSEEQYNKIVIPNEENVVIYYKIRQQLAKLGKEIEEYIHKPKYCLPFLQPGRLVKVKNEGDDFGWGVVVNFSKKSNVKPNSGELDPLYVVEVLLRCSKESLKNSATEAAKPAKPDEKGEMQVVPVLVHLLSAISTVRLYIPKDLRPVDNRQSVLKSIQEVQRRFPDGVPLLDPIDDMGIQDQGLKKVIQKVEAFEHRMYSHPLHNDPNLETVYTLCERKAQIALDIKSAKRELKKARTVLQMDELKCRKRVLRRLGFATSSDVIEMKGRVACEISSADELLLTEMMFNGLFNDLSSEQATALLSCFVFQENSSEMPKLTEQLAGPLRQMQECAKRIAKVSAEAKLEIDEETYLSSFKPHLMDVVYTWATGATFAHICKMTDVFEGSIIRCMRRLEELLRQMCQAAKAIGNTELENKFAEGITKIKRDIVFAASLYL
 | binds |  | U2AF1 (protein, UniProt Q9D883 1-239) MAEYLASIFGTEKDKVNCSFYFKIGACRHGDRCSRLHNKPTFSQTIALLNIYRNPQNSSQSADGLRCAVSDVEMQEHYDEFFEEVFTEMEEKYGEVEEMNVCDNLGDHLVGNVYVKFRREEDAEKAVIDLNNRWFNGQPIHAELSPVTDFREACCRQYEMGECTRGGFCNFMHLKPISRELRRELYGRRRKKHRSRSRSRERRSRSRDRGRGGGGGGGGGGGRERDRRRSRDRERSGRF
 | binds |  | CWC22 (protein, UniProt Q8C5N3 1-908) MKSSVAHMKSSGHNRRETHSSYRRSSSPEDRYTEQERSPRDRGYSDYSRSDYERSRRGYSYDDSMESRSRDREKRRERERDADHRKRSRKSPSPDRSPARGGGQSSPQEEPTWKKKKDELDPLLTRTGGAYIPPAKLRMMQEQITDKSSLAYQRMSWEALKKSINGLINKVNISNISIIIQELLQENIVRGRGLLSRSVLQAQSASPIFTHVYAALVAIINSKFPQIGELILKRLILNFRKGYRRNDKQLCLTASKFVAHLINQNVAHEVLCLEMLTLLLERPTDDSVEVAIGFLKECGLKLTQVSPRGINAIFERLRNILHESEIDKRVQYMIEVMFAVRKDGFKDHPVILEGLDLVEEDDQFTHMLPLEDDYNPEDVLNVFKMDPNFMENEEKYKAIKKEILDEGDSDSNTDQGAGSSEDEEEEDEEEEGEDEEGGQKVTIHDKTEINLVSFRRTIYLAIQSSLDFEECAHKLLKMEFAESQTKELCNMILDCCAQQRTYEKFFGLLAGRFCMLKKEYMESFESIFKEQYDTIHRLETNKLRNVAKMFAHLLYTDSLPWSVLECIKLSEETTTSSSRIFVKIFFQELCEYMGLPKLNARLKDETLQPFFEGLLPRDNPRNTRFAINFFTSIGLGGLTDELREHLKNTPKVIVAQKPEAEQKKPALTSSSSESSSASDSSDSESDSSESSSESSSDASDSSSSSSTQSSTSGITAHSAKGTRKKRQGKARGEEVDKLARGHQALERRREGGREDQRHQEGRTERARSERRRAQNSRDADWRDPLAKHIDDRSHENSHSRVGNGREQGSHREPEDRHGEPKKRRERRDSFSENEKQRSRNQDSDNVRRKDRSKSRERSRRHSGHKGDDARCQNSAERRWEKPGRRPEQSRESKRSQDRRREKSPTTQK
